Results are given in words; binding and its absence hold for the method and conditions named. Binding seen in cells or lysates may run through a third protein. Some binding calls cover weakened binding; strength is not graded here.
Target: CCAAT enhancer binding protein beta (C/EBPβ) (UniProt P17676)
Test: co-IP; lysates of cells 48 h after transfection of the relevant plasmids; overnight at 4°C with specific antibodies, protein A or G beads, Western blot; also done in cells with MIR503HG overexpression or knockdown

Protein sequences, listed by entry. Tags and fused reporters are not part of them. Residues count along the entry.
UniProt P17676: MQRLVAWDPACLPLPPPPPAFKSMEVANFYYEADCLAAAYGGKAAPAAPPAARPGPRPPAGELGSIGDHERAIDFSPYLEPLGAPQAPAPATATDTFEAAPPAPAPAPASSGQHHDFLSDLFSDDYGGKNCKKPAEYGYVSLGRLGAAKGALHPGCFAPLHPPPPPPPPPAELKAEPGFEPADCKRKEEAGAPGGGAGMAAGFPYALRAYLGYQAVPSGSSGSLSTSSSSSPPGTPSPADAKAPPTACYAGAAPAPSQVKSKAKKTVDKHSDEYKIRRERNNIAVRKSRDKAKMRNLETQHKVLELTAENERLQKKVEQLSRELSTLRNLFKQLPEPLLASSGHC
UniProt Q68DV7, residues 24-783: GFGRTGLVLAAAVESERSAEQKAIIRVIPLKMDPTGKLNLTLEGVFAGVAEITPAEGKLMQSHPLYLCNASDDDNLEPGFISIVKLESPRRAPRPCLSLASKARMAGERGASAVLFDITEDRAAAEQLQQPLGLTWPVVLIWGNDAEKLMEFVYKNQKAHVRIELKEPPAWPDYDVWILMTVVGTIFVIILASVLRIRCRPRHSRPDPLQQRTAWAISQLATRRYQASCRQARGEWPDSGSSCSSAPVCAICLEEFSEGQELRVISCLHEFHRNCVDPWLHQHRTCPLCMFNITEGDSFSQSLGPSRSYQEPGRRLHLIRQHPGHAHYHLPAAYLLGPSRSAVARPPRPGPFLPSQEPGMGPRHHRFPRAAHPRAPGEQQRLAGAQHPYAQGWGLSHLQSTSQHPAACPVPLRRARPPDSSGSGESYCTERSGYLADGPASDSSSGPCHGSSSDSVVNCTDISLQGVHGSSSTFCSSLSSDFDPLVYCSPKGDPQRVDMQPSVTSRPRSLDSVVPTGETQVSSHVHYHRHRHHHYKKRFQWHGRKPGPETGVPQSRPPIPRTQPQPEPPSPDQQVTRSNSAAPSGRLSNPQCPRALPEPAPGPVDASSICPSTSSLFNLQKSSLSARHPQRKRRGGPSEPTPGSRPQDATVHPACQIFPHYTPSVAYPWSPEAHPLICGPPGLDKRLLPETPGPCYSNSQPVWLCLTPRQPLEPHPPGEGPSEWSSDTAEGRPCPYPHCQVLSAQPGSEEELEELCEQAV

- binding: binds
Substance: E3 ubiquitin ligase RNF43 (from UniProt Q68DV7 24-783) (enzyme)

Reference: paper PMC12148952
